Protein sequences, listed by entry. Tags and fused reporters are not part of them. Lines headed by an entry give the natural chain unless they say otherwise; changes in a name come on top.
UniProt P06881: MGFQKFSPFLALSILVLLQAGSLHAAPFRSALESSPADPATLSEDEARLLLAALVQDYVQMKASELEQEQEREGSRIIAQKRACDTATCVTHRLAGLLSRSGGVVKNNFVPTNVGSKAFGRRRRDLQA

In US7030081B2 (S.I.S.S.A.- Scuola Internazionale Superiore di Studi …, priority 2000, dated 2006):

Test system: nAChRs of rat chromaffin cells
Assay: Patch-clamp recording of nicotine-induced currents in cultured rat chromaffin cells
Format: cell-based
Protocol: Cultures of rat chromaffin cells were prepared according to the Brandt method (Brandt et al., 1976, Giniatullin et al., 1999, Khirough et al., 1997, 1998). 25–35 day old rats were anaesthetized by increasing CO2 levels and then their adrenal glands were removed. The medullary part was separated from the cortical portion of the gland in buffer solution (pH 7.2) containing (mM): NaCl 137, KCl 3, Na2HPO4 0.7, HEPES 25, glucose 10 and 350 U ml^−1 of penicillin and streptomycin. […]
Dishes containing cultured cells (used from 0 to 3 days after their preparation) were placed on an inverted Nikon DIAPHOT™ microscope and continuously superfused (5–10 ml/min) with control saline containing (mM): NaCl 135, KCl 5, MgCl2 1, CaCl2 2, glucose 15, HEPES 10 (pH 7.4 with addition of NaCH; 285 mOsm osmolarity). […] After obtaining whole-cell configuration (Hamill et al. 1981), each cell was stabilized for […] period, after which membrane ionic currents, mediated by nAChR activation, were recorded, filtered at 1 kHz, and stored in a PC for subsequent analysis with the pCLAMP 6.04 program (Axon Instruments Inc., Foster City, Calif.).
nAChR agonists were administered to single cells by a pressure system from a micropipette containing a relatively concentrated solution and placed at […] distance from the recorded cell. […]

With “CGRP 1-3: CGRP N-terminal fragment 1-3, inactive (ACD; Calcitonin gene-related peptide 1; UniProt P06881 83-85, looked up, fragment)” the “enhancement of nicotine induced currents” value (1 μM peptide, nicotine 0.1 mM, 20 ms pulse) was 0±1% and the “action of fragment on nicotinic currents (in words)” value (FIG. 5B) was “inactive”.
